The record followed here is patent publication US20180201677A1 (ERASMUS UNIVERSITY MEDICAL CENTER, published 2018).

The assay has as its target cynomolgus monkey CD47 (cynomolgus monkey). Kind of assay: flow cytometry, antibody dilution series on cynomolgus red blood cells. A general note: A flow cytometer gives signals particle by particle.

Results are given in words; binding and its absence hold for the method and conditions named. Some binding calls cover weakened binding; strength is not graded here.

B1: anti-CD47 antibody 2.3D11 (antibody, V domains shown)
VH: QVQLQESGPGLVKPSGTLSLTCAVSGVSIRSINWWNWVRQPPGKGLEWIGEIYHSGSTNYNPSLKSRVTISVDKSKNQFSLKLNSVTAADTAVYYCARDGGIAVTDYYYYGLDVWGQGTTVTVSS
VL: EIVLTQSPATLSLSPGERATLSCRASESVSSNLAWYQQKPGQAPRLLIYGAFNRATGIPARFSGSGSGTDFTLTISSLEPEDFAVYYCQQRSDWFTFGGGTKVEIKR
Take B1: the binding entry is “binds”.
